Consider one molecule from patent US20050196743A1.

Amino acid sequences for entries named in this document (tags omitted). A change or cut given only in a name is not applied to a line headed by its entry.
UniProt P32781: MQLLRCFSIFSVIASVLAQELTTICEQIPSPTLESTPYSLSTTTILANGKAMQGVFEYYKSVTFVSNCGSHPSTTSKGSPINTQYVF
UniProt P32323: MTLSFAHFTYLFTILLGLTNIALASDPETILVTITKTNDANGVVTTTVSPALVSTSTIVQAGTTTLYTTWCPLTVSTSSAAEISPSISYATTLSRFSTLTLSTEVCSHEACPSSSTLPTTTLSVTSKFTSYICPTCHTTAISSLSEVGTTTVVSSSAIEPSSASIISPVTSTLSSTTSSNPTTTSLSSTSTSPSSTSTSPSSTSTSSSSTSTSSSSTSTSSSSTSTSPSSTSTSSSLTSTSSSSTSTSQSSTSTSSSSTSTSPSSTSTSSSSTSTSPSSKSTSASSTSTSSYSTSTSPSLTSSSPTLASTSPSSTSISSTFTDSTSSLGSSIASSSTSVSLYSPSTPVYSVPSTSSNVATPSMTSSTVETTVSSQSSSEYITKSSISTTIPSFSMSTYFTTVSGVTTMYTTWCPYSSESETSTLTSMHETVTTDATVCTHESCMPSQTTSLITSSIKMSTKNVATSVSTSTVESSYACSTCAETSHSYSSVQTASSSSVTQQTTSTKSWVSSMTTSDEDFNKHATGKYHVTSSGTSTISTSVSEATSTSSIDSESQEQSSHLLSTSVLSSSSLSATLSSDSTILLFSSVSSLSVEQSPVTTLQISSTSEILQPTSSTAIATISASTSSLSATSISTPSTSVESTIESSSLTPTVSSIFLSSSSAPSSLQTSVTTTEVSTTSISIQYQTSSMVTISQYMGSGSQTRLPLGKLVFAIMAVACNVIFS

These are yes or no findings as the source states them, for the method shown. Some binding calls cover weakened binding; strength is not graded here. Tags and fused reporters may be left off the sequences shown.

For test [1], the target named is T1, a-agglutinin (Aga1 protein with disulfide-linked Aga2 protein) on the surface of α-factor-treated MATa cells (Saccharomyces cerevisiae) (UniProt P32781+P32323). Description: whole-cell binding to strain CY1892 with or without 100 nM α-factor; bound protein released with 2% SDS; Western blot with anti-Xpress. Background: Immunoblotting shows a protein as a band on a membrane.

In test [2] the target is T1, a-agglutinin (Aga1 protein with disulfide-linked Aga2 protein) on the surface of α-factor-treated MATa cells (Saccharomyces cerevisiae). Description: summary of the whole-cell binding and ELISA-like assays of Example 3. In general terms: ELISA stands for enzyme-linked immunosorbent assay.

B1: Sag1p^21-352 (N-terminal domain of the α-agglutinin Sag1 protein with (His)6 tag, Xpress epitope and enterokinase cleavage site at the N-terminus) (protein, Saccharomyces cerevisiae, UniProt P20840 21-352, looked up, not shown: small tags and cut ends)
chain: NINDITFSNLEITPLTANKQPDQGWTATFDFSIADASSIREGDEFTLSMPHVYRIKLLNSSQTATISLADGTEAFKCYVSQQAAYLYENTTFTCTAQNDLSSYNTIDGSITFSLNFSDGGSSYEYELENAKFFKSGPMLVKLGNQMSDVVNFDPAAFTENVFHSGRSTGYGSFESYHLGMYCPNGYFLGGTEKIDYDSSNNNVDLDCSSVQVYSSNDFNDWWFPQSYNDTNADVTCFGSNLWITLDEKLYDGEMLWVNALQSLPANVNTIDHALEFQYTCLDTIANTTYATQFSTTREFIVYQGRNLGTASAKSSFISTTTTDLTSINTSAY
modifications: highly N-glycosylated
B1: the binding result in test [1] and in test [2] was “binds” in each case.
